Measured values published in patent publication US8138307.
Results are given in words; binding and its absence hold for the method and conditions named. Binding seen in cells or lysates may run through a third protein. Some entries that bind do so weakly or less than the wild type. For some assays here: Sequences can lack the tags named with a protein.

Protein sequences, listed by entry. Tags and fused reporters are not part of them. Lines headed by an entry give the natural chain unless they say otherwise; changes in a name come on top.
UniProt Q9BT88: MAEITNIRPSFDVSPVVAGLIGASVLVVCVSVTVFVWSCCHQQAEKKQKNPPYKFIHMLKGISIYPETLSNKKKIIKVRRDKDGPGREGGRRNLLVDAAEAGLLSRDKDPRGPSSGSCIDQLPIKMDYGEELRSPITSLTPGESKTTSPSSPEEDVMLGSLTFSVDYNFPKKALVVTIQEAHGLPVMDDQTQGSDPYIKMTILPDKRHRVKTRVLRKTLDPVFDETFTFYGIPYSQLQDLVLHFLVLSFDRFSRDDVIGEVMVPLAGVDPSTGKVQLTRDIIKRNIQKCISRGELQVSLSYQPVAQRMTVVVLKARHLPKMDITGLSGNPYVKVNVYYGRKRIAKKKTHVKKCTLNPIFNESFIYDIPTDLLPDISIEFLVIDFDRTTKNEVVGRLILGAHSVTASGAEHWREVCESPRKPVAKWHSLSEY
UniProt P21579: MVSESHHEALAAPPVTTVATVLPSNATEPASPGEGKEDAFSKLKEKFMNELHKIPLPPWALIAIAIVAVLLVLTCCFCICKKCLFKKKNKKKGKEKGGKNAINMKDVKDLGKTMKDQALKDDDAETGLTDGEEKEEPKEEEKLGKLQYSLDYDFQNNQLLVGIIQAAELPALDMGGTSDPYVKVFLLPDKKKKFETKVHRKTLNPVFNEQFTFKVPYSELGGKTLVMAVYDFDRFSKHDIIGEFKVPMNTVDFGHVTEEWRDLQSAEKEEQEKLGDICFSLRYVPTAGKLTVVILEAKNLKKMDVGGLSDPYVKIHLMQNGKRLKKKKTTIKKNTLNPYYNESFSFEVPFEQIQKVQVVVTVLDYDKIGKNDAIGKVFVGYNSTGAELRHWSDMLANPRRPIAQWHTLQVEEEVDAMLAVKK
UniProt P21707: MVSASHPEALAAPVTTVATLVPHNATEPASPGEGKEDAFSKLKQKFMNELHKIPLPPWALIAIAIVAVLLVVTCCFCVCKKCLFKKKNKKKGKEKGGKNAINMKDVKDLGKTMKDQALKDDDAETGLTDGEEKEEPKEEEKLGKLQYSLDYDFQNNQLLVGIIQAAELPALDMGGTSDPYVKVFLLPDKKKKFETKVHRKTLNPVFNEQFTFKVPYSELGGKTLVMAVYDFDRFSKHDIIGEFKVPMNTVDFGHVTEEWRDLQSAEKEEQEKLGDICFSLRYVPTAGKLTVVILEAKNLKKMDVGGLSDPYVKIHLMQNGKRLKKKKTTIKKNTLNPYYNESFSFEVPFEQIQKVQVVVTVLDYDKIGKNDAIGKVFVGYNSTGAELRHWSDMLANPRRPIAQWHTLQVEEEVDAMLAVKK
UniProt O60260: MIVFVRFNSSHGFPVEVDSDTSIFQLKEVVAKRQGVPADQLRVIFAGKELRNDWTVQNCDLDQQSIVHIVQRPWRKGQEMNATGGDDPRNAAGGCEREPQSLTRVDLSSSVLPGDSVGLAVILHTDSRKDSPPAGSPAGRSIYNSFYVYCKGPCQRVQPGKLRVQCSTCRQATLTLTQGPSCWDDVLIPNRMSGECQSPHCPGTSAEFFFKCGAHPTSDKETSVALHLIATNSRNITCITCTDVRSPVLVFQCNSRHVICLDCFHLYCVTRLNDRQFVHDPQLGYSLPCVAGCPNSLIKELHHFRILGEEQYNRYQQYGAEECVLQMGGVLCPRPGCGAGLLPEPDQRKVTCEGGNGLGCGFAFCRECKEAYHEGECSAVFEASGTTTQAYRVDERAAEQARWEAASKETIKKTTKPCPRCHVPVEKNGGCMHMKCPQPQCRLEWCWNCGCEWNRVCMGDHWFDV
UniProt Q9JK66: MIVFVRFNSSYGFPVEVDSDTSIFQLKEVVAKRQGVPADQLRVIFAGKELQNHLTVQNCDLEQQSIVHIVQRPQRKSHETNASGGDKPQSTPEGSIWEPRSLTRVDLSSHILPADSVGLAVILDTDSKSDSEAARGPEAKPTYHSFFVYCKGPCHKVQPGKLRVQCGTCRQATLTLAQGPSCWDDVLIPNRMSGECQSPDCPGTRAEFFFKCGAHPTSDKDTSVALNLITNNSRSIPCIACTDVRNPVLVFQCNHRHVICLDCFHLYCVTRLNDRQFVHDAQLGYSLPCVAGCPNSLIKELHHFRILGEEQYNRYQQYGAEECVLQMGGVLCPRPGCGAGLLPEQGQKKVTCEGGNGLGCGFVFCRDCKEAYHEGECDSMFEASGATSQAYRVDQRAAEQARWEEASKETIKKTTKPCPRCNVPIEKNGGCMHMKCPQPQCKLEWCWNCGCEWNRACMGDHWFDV

How the values were obtained:
[1] = molecular target: endogenous synaptotagmin XI in human cerebral cortex extract (human) (UniProt Q9BT88); experiment: co-immunoprecipitation from human cerebral cortex extract, both directions
[2] = molecular target: endogenous synaptotagmin XI in human cerebral cortex extract (human) (UniProt Q9BT88); experiment: co-immunoprecipitation from human cerebral cortex extract with rabbit anti-parkA
[3] = molecular target: T1, full length synapsin-like protein (SLP), GFP fusion (human); experiment: co-immunoprecipitation
T1 sequence: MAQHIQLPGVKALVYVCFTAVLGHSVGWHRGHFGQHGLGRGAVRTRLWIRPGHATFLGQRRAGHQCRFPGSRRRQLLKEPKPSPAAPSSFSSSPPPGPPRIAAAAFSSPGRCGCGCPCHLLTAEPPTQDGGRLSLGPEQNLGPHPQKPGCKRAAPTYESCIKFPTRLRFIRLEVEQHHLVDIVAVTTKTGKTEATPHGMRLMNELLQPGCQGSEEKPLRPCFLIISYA

[4] = molecular target: myc-syt1 (syt1 cDNA in the pCMV-myc expression plasmid) (human) (UniProt P21579); experiment: co-immunoprecipitation with anti-HA-agarose from 293T extracts, anti-myc blot
[5] = molecular target: endogenous synaptotagmin 1 in PC12 cells (UniProt P21707); experiment: co-immunoprecipitation from PC12 extract with mouse anti-syt1

endogenous parkin in human cerebral cortex extract (from UniProt O60260 1-465) (enzyme)
binding [1]: binds
binding [2]: binds

hemaglutinin-parkin (HA-parkin), full-length wild type (from UniProt O60260 1-465) (enzyme)
binding [3]: binds
binding [4]: binds

endogenous parkin in PC12 cells (from UniProt Q9JK66 1-465) (enzyme)
binding [5]: binds
